# The other results are listed elsewhere or left out. The list holds hits alone, and they repeat only in part.
# Sequences of proteins named here, by UniProt entry; tags and fusion partners are left off.
# ATP6V1D, Q9Y5K8, UniProt Q9Y5K8, whole entry: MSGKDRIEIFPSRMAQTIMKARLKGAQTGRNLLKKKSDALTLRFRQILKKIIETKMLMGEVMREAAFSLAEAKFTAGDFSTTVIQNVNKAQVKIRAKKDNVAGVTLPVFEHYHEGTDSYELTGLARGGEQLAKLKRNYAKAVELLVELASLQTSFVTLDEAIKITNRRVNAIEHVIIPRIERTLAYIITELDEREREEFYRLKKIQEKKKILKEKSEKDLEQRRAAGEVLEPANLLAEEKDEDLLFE
# SEC61A1, P61619, UniProt P61619, whole entry: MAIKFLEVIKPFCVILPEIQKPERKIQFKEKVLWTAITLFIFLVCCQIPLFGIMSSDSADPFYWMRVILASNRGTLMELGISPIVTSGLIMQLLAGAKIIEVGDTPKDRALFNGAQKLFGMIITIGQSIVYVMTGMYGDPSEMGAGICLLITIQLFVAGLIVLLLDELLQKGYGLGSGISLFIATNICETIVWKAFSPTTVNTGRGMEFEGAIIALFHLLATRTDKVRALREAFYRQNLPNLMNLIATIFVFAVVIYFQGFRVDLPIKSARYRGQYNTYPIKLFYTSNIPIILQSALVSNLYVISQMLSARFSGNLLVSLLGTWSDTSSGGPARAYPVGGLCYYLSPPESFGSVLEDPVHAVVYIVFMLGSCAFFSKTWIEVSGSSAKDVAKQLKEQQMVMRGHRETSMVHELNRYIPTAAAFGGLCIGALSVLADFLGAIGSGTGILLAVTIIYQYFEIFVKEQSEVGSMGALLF
# CAPZB, P47756, UniProt P47756, whole entry: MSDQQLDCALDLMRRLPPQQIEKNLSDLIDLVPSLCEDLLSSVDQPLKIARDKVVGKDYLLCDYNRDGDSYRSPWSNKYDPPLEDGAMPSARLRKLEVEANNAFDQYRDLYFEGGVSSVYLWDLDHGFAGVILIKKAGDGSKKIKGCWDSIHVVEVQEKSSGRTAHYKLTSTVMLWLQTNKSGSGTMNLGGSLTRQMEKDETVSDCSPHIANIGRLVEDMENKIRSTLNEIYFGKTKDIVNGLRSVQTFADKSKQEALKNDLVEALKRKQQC
# CD2AP, Q9Y5K6, UniProt Q9Y5K6, whole entry: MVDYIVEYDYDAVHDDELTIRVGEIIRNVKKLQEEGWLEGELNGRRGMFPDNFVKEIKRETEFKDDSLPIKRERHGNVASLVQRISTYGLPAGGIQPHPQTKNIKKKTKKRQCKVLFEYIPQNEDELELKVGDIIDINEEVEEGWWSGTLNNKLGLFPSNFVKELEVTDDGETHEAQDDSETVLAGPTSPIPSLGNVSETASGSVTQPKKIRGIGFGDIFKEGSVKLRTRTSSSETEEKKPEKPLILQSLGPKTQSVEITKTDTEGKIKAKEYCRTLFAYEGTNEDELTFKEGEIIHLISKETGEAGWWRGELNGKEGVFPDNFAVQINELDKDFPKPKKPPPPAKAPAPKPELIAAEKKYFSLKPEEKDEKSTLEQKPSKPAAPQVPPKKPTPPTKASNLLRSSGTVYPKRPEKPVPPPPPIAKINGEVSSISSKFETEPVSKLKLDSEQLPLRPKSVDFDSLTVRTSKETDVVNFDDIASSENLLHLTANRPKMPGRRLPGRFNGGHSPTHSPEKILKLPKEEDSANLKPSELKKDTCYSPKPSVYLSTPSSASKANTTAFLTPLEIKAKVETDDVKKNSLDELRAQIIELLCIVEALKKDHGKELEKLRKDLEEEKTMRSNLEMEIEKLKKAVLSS
# MORF4L2, Q15014, UniProt Q15014, whole entry: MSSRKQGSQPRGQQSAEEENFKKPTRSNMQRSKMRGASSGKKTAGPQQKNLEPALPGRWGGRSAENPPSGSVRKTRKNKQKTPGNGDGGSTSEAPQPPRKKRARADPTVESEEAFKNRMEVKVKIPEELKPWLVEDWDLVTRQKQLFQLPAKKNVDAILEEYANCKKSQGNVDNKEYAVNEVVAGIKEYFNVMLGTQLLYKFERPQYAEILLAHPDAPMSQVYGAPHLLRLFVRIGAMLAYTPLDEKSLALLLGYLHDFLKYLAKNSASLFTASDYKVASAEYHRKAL
# PCBP3, P57721, UniProt P57721, whole entry: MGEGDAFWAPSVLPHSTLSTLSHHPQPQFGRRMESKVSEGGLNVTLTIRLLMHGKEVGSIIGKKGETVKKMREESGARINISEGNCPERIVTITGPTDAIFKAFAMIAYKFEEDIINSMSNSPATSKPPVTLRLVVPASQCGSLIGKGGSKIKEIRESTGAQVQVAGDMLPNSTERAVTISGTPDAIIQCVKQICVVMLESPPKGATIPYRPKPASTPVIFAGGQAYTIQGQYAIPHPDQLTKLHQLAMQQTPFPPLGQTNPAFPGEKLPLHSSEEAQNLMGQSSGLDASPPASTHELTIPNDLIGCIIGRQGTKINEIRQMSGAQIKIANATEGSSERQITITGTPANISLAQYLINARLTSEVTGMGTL
# Columns and labels:
# Test in all cases: PRISMA enrichment of interactor (LFQ) in peptide spot vs all other peptide spots (log2 fold change); higher = stronger / more specific binding of the interactor to the peptide
# ATP6V1D, Q9Y5K8 = target: ATP6V1D, Q9Y5K8
# Experimental: (§1)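 PRISMA: 221 full-length sORF-encoded peptides (3-15 aa), plus SOS1/GLUT1 control peptides, were spot-synthesized on cellulose membranes in triplicate. Membranes were incubated with HEK293T lysate, and bound proteins were identified by LC-MS/MS with LFQ. Enrichment is the log2 fold change versus all other peptide spots; only significant interactors are listed (cutoff c=6, x0=2.8).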
# MEMO1, Q9Y316 = target: MEMO1, Q9Y316
# Experimental: as §1
# NEK7, Q8TDX7 = target: NEK7, Q8TDX7
# Experimental: as §1
# SEC61A1, P61619 = target: SEC61A1, P61619
# Experimental: as §1
# BRIX1, Q8TDN6 = target: BRIX1, Q8TDN6
# Experimental: as §1
# DERPC, P0CG12 = target: DERPC, P0CG12
# Experimental: as §1
# PRPF38A, Q8NAV1 = target: PRPF38A, Q8NAV1
# Experimental: as §1
# SNX4, O95219 = target: SNX4, O95219
# Experimental: as §1
# STAU2, Q9NUL3 = target: STAU2, Q9NUL3
# Experimental: as §1
# C12orf57, Q99622 = target: C12orf57, Q99622
# Experimental: as §1
# CSNK2A1, P68400 = target: CSNK2A1, P68400
# Experimental: as §1
# RSL24D1, Q9UHA3 = target: RSL24D1, Q9UHA3
# Experimental: as §1
# TMED7-TICAM2 = target: TMED7-TICAM2
# Experimental: as §1
# CAPZB, P47756 = target: CAPZB, P47756
# Experimental: as §1
# CD2AP, Q9Y5K6 = target: CD2AP, Q9Y5K6
# Experimental: as §1
# BCKDK, O14874 = target: BCKDK, O14874
# Experimental: as §1
# CCDC137, Q6PK04 = target: CCDC137, Q6PK04
# Experimental: as §1
# CLYBL, Q8N0X4 = target: CLYBL, Q8N0X4
# Experimental: as §1
# CSNK1A1, P48729 = target: CSNK1A1, P48729
# Experimental: as §1
# CSNK1E, P49674 = target: CSNK1E, P49674
# Experimental: as §1
# DDX47, Q9H0S4 = target: DDX47, Q9H0S4
# Experimental: as §1
# EMG1, Q92979 = target: EMG1, Q92979
# Experimental: as §1
# IBA57, Q5T440 = target: IBA57, Q5T440
# Experimental: as §1
# MCAT, Q8IVS2 = target: MCAT, Q8IVS2
# Experimental: as §1
# MORF4L2, Q15014 = target: MORF4L2, Q15014
# Experimental: as §1
# SPTSSA, Q969W0 = target: SPTSSA, Q969W0
# Experimental: as §1
# ZNF768, Q9H5H4 = target: ZNF768, Q9H5H4
# Experimental: as §1
# BAG6, P46379 = target: BAG6, P46379
# Experimental: as §1
# CTSA, P10619 = target: CTSA, P10619
# Experimental: as §1
# MRPS31, Q92665 = target: MRPS31, Q92665
# Experimental: as §1
# TMEM41B, Q5BJD5 = target: TMEM41B, Q5BJD5
# Experimental: as §1
# BZW1, Q7L1Q6 = target: BZW1, Q7L1Q6
# Experimental: as §1
# CCNL2, Q96S94 = target: CCNL2, Q96S94
# Experimental: as §1
# HERC2, O95714 = target: HERC2, O95714
# Experimental: as §1
# PCBP3, P57721 = target: PCBP3, P57721
# Experimental: as §1
# SNRPA1, P09661 = target: SNRPA1, P09661
# Experimental: as §1
binder,measurement,setting,value
MSMIGCDFRS [HUWE1],PRISMA enrichment of interactor (log2),"ATP6V1D, Q9Y5K8",5.95
same,PRISMA enrichment of interactor (log2),"MEMO1, Q9Y316",4.84
same,PRISMA enrichment of interactor (log2),"NEK7, Q8TDX7",5.04
same,PRISMA enrichment of interactor (log2),"SEC61A1, P61619",10.1
MQGVPGGLRSPSGE [ANK1],PRISMA enrichment of interactor (log2),"BRIX1, Q8TDN6",7.68
same,PRISMA enrichment of interactor (log2),"DERPC, P0CG12",6.21
same,PRISMA enrichment of interactor (log2),"PRPF38A, Q8NAV1",6.31
same,PRISMA enrichment of interactor (log2),"SNX4, O95219",6.67
same,PRISMA enrichment of interactor (log2),"STAU2, Q9NUL3",6.16
MCVLKL [ATM],PRISMA enrichment of interactor (log2),"C12orf57, Q99622",3.68
same,PRISMA enrichment of interactor (log2),"CSNK2A1, P68400",5.77
same,PRISMA enrichment of interactor (log2),"RSL24D1, Q9UHA3",5.06
same,PRISMA enrichment of interactor (log2),TMED7-TICAM2,6.93
MAAPRV [COPS5],PRISMA enrichment of interactor (log2),"CAPZB, P47756",4.8
same,PRISMA enrichment of interactor (log2),"CD2AP, Q9Y5K6",9.71
MARLARDEWND [BFAR],PRISMA enrichment of interactor (log2),"BCKDK, O14874",8.47
same,PRISMA enrichment of interactor (log2),"CCDC137, Q6PK04",5.82
same,PRISMA enrichment of interactor (log2),"CLYBL, Q8N0X4",5.42
same,PRISMA enrichment of interactor (log2),"CSNK1A1, P48729",7.85
same,PRISMA enrichment of interactor (log2),"CSNK1E, P49674",6.78
same,PRISMA enrichment of interactor (log2),"DDX47, Q9H0S4",4.61
same,PRISMA enrichment of interactor (log2),"EMG1, Q92979",5.54
same,PRISMA enrichment of interactor (log2),"IBA57, Q5T440",5.2
same,PRISMA enrichment of interactor (log2),"MCAT, Q8IVS2",4.42
same,PRISMA enrichment of interactor (log2),"MORF4L2, Q15014",6.67
same,PRISMA enrichment of interactor (log2),"SPTSSA, Q969W0",7.3
same,PRISMA enrichment of interactor (log2),"ZNF768, Q9H5H4",5.21
MKSRDLSLLL [FKBP14],PRISMA enrichment of interactor (log2),"BAG6, P46379",4.62
same,PRISMA enrichment of interactor (log2),"CTSA, P10619",4.71
same,PRISMA enrichment of interactor (log2),"MRPS31, Q92665",7
same,PRISMA enrichment of interactor (log2),"TMEM41B, Q5BJD5",3.82
MAAPGSDRLLGLRRE [ATG13],PRISMA enrichment of interactor (log2),"BZW1, Q7L1Q6",6.51
same,PRISMA enrichment of interactor (log2),"CCNL2, Q96S94",4.61
same,PRISMA enrichment of interactor (log2),"HERC2, O95714",4.19
same,PRISMA enrichment of interactor (log2),"PCBP3, P57721",4.14
same,PRISMA enrichment of interactor (log2),"SNRPA1, P09661",8.95

# Retrieved one by one from the list above (2):
binder,measurement,setting,value
MAAPGSDRLLGLRRE [ATG13],PRISMA enrichment of interactor (log2),"CCNL2, Q96S94",4.61
MAAPRV [COPS5],PRISMA enrichment of interactor (log2),"CD2AP, Q9Y5K6",9.71
